{"source": "paper PMC7819943", "about": "“Rice protein-binding microarrays: a tool to detect cis-acting elements near promoter regions in rice”", "note": "Some of the results follow.", "data": [{"molecular_target": "T1, OsSMF1 (Oryza sativa, UniProt Q6ZLB0 1-436)", "T1 sequence": "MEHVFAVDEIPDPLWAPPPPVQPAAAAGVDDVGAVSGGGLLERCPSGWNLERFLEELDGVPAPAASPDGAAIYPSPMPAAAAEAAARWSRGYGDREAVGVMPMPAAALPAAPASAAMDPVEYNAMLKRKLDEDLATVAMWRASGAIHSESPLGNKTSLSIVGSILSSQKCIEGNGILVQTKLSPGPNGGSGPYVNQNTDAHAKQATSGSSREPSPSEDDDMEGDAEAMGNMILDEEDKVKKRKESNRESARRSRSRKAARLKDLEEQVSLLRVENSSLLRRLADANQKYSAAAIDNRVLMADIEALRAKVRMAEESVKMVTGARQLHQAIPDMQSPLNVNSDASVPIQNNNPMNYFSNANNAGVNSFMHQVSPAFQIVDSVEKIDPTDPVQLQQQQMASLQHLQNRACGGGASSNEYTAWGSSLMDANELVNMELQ", "assay": "protein-binding microarray (RPBM); PBS, 2% BSA, 51.3 ng/ul salmon testes DNA, 50 uM zinc acetate, 200 nM TF, 25 C, 1 h; high values mean tight binding", "conditions": "protein: recombinant; tags: N-terminal polyhistidine and DsRed monomer fusion (pET32a); chain copies: 2; label: CyDye5-dUTP incorporated in the synthesized complementary strand; 3' TTTTT single-stranded linker to array surface; dsDNA, one strand shown", "summary_of_the_method": "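Transcription factors, each fused N-terminally to a polyhistidine tag and DsRed, were expressed in E. coli BL21-CodonPlus and purified on Ni–NTA. A custom Agilent array was made double-stranded by primer extension with Cy5-dUTP and blocked with 2% BSA. It was incubated with 200 nM protein in PBS, 2% BSA, salmon testes DNA and 50 µM zinc acetate at 25 °C for 1 h, then washed. The binding signal is per-feature fluorescence intensity (arbitrary units) read on an Axon 4000B scanner.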", "values": [{"sequence": "AACACCAATCACCACGTACGCCGACCAACCCCATCCACCCCGGAGTCACCTAGTGCAG", "binding signal": "6870 fluorescence intensity (a.u.)"}, {"sequence": "GATGAATCCGCCGAGTGTGTTATTGATTGTATGATTTGGACGGAGTCACCTAGTGCAG", "binding signal": "3660 fluorescence intensity (a.u.)"}, {"sequence": "ATCGAATGATCTAACGGCTCACACACTCCCACGCACTTTGCGGAGTCACCTAGTGCAG", "binding signal": "3290 fluorescence intensity (a.u.)"}, {"sequence": "GGACCTAAATCTCTTCAAATGACACGACATCTTTACAAATCGGAGTCACCTAGTGCAG", "binding signal": "5600 fluorescence intensity (a.u.)"}, {"sequence": "GATGTCGCTGCCGCGCCTACCGGCTGTCGTCATCGCTGCCCGGAGTCACCTAGTGCAG", "binding signal": "4710 fluorescence intensity (a.u.)"}, {"sequence": "TATTGCCATGTAGGACCAAAACCAACGTGGATTGAAGCGGCGGAGTCACCTAGTGCAG", "binding signal": "4740 fluorescence intensity (a.u.)"}, {"sequence": "CGGCTGCTGCTCGCCGTGCCACGTGGCACTCGACTGGCGCCGGAGTCACCTAGTGCAG", "binding signal": "26700 fluorescence intensity (a.u.)"}, {"sequence": "AGTTTAGTACTTCCATATGTTAAACACATTAAATTTATGGCGGAGTCACCTAGTGCAG", "binding signal": "31500 fluorescence intensity (a.u.)"}, {"sequence": "TCAACAATCAAGAAAATGGCACCAGCAATTGAAAGAAGTGCGGAGTCACCTAGTGCAG", "binding signal": "3480 fluorescence intensity (a.u.)"}, {"sequence": "GTGGGGAAGAGGAGGCAGAGGACGCGATGCTGTTTTGATACGGAGTCACCTAGTGCAG", "binding signal": "3210 fluorescence intensity (a.u.)"}, {"sequence": "GCAACGCGACCATGTTCTCTCCCGCCACGGGGCCGCGCGCCGGAGTCACCTAGTGCAG", "binding signal": "3220 fluorescence intensity (a.u.)"}, {"sequence": "CAGTTGGCGATCGACGTACGTTTACCTCCTGACGCCATTGCGGAGTCACCTAGTGCAG", "binding signal": "3160 fluorescence intensity (a.u.)"}, {"sequence": "ATCTTCATTGGCCGGCGTGTGATCGTCGTCATACACTCGTCGGAGTCACCTAGTGCAG", "binding signal": "4750 fluorescence intensity (a.u.)"}, {"sequence": "CTTGCAGAAAGGAACAATGTTGTCATAAGAATGTTCAGTACGGAGTCACCTAGTGCAG", "binding signal": "3360 fluorescence intensity (a.u.)"}, {"sequence": "TTCTGATCCGGATCTCCCACGTCAAGATCAGACTATACCTCGGAGTCACCTAGTGCAG", "binding signal": "3280 fluorescence intensity (a.u.)"}, {"sequence": "CATTGAAATATGTCATATTAGTTATTTATGTTGTTCGTTTCGGAGTCACCTAGTGCAG", "binding signal": "4020 fluorescence intensity (a.u.)"}, {"sequence": "CCTGTGCCCATATCCTGTTGTTTCCAGTAGACATCCTTGGCGGAGTCACCTAGTGCAG", "binding signal": "3160 fluorescence intensity (a.u.)"}, {"sequence": "CGACCCAAAGGGATTGCATGCGTTGTCTGTGTCACCAGATCGGAGTCACCTAGTGCAG", "binding signal": "5270 fluorescence intensity (a.u.)"}, {"sequence": "TGGGGCCACGAGCGTGCCACGCCATCATCAAACACGTTTCCGGAGTCACCTAGTGCAG", "binding signal": "7710 fluorescence intensity (a.u.)"}, {"sequence": "ACGCGGTTCAGGACCGGCAGGTGGTGAACGCCATTGCCATCGGAGTCACCTAGTGCAG", "binding signal": "3430 fluorescence intensity (a.u.)"}, {"sequence": "TGCCTGTGTGTGTCACTCTTCTCATGATCTCATCACACCACGGAGTCACCTAGTGCAG", "binding signal": "4130 fluorescence intensity (a.u.)"}, {"sequence": "CGTGTCCTTCTGGCTCGTCCGTGACGACGATGACGACGACCGGAGTCACCTAGTGCAG", "binding signal": "3580 fluorescence intensity (a.u.)"}, {"sequence": "TCTGCTTACCCTTCACGACGGCCACCTGTCACCATCATAGCGGAGTCACCTAGTGCAG", "binding signal": "4920 fluorescence intensity (a.u.)"}, {"sequence": "TGGTACCAAGCTGACATGGATATTGTCGTTGCTGCTCATCCGGAGTCACCTAGTGCAG", "binding signal": "4260 fluorescence intensity (a.u.)"}, {"sequence": "GGAGAGCATAGCTTAGGATAACAGTACCAACCAGTTAACTCGGAGTCACCTAGTGCAG", "binding signal": "3340 fluorescence intensity (a.u.)"}, {"sequence": "ATTCTCCGGTCGCCACGACTGCTTCGTGAACAATCTGCATCGGAGTCACCTAGTGCAG", "binding signal": "4730 fluorescence intensity (a.u.)"}, {"sequence": "TGTTTTCTAATATTTACAATCAGATCCCTTGAGTGAGTCACGGAGTCACCTAGTGCAG", "binding signal": "4150 fluorescence intensity (a.u.)"}, {"sequence": "GTGAAGCCATCCAGCTGTGTGCCACGTCAAGATGAGTCCACGGAGTCACCTAGTGCAG", "binding signal": "19900 fluorescence intensity (a.u.)"}, {"sequence": "AGTACATTTTGCATGGACCATGTGAGGAGCCACGTATTCGCGGAGTCACCTAGTGCAG", "binding signal": "8620 fluorescence intensity (a.u.)"}, {"sequence": "CAGAAAATCCTCCTGCTCATGGCACAAATTGGGCTGCAGACGGAGTCACCTAGTGCAG", "binding signal": "27100 fluorescence intensity (a.u.)"}, {"sequence": "TCCGTATATCCGATGTGACACGTCAAAACTTTTCACCCCTCGGAGTCACCTAGTGCAG", "binding signal": "13000 fluorescence intensity (a.u.)"}, {"sequence": "TGAAACGACTCGTGTATATCTCTCCTCACCTTGGCGCGCCCGGAGTCACCTAGTGCAG", "binding signal": "5570 fluorescence intensity (a.u.)"}, {"sequence": "TTCTATAGTTCAGTTAGAGTGGGGATAGGAAAAGGAAAGGCGGAGTCACCTAGTGCAG", "binding signal": "28500 fluorescence intensity (a.u.)"}, {"sequence": "TATTAATCGTGGACTCTCTTTCCTTCCAGAATTTTAAGGACGGAGTCACCTAGTGCAG", "binding signal": "3840 fluorescence intensity (a.u.)"}, {"sequence": "TGTGTCTAACGTACGCCAGCGCTTATCGCCTGCTCCATCCCGGAGTCACCTAGTGCAG", "binding signal": "3200 fluorescence intensity (a.u.)"}, {"sequence": "GTCCTTGAATCTGACGTCGCCGGCTTGATGCGCGCTCCCTCGGAGTCACCTAGTGCAG", "binding signal": "4890 fluorescence intensity (a.u.)"}, {"sequence": "AAGAAGAAGAGTATGAAGCTGTGACGTGGAGGGCTGACCGCGGAGTCACCTAGTGCAG", "binding signal": "24600 fluorescence intensity (a.u.)"}, {"sequence": "AGCACAAGTCCACTGCGTGCGTGCGAGCGATGACTCCGATCGGAGTCACCTAGTGCAG", "binding signal": "4240 fluorescence intensity (a.u.)"}, {"sequence": "ACCGTGCGTGACAAATGATGCCAACATGTATGAAGCTCTGCGGAGTCACCTAGTGCAG", "binding signal": "3920 fluorescence intensity (a.u.)"}, {"sequence": "ACCCCAACCAACTGACGCAACGGCCCCACCTCCCTGTCCCCGGAGTCACCTAGTGCAG", "binding signal": "5490 fluorescence intensity (a.u.)"}, {"sequence": "AAGCAACACAGTTTTCTCCATGGCCCCATGGCGCCAATAACGGAGTCACCTAGTGCAG", "binding signal": "3170 fluorescence intensity (a.u.)"}, {"sequence": "AGGGCTCTGAAAATAAGTCCAAAGTAATGGTGGCATGATGCGGAGTCACCTAGTGCAG", "binding signal": "4250 fluorescence intensity (a.u.)"}, {"sequence": "TTTTAGTGTGACTGCATTCCTGGCGTCATCAGAAAATGAACGGAGTCACCTAGTGCAG", "binding signal": "3750 fluorescence intensity (a.u.)"}, {"sequence": "CGCCAGCGCCAGCGTCACCATCTTTCTTTTCCGATCACACCGGAGTCACCTAGTGCAG", "binding signal": "4990 fluorescence intensity (a.u.)"}, {"sequence": "ACCCCACGTACACCCCATGCTTCGTGACCGTGTGAGCTCTCGGAGTCACCTAGTGCAG", "binding signal": "3340 fluorescence intensity (a.u.)"}, {"sequence": "AGGTGGTGTTTGGTTGGAGGGGCTAAAGTGGGGCTAAACTCGGAGTCACCTAGTGCAG", "binding signal": "5760 fluorescence intensity (a.u.)"}, {"sequence": "CCACCCACCACTTCTTCTCTACCTAGCTCTCTCTTTCTCGCGGAGTCACCTAGTGCAG", "binding signal": "21400 fluorescence intensity (a.u.)"}, {"sequence": "ACTGCCCCTCCTAGCCAAAGCCACCTCATCCTCCTCTTCACGGAGTCACCTAGTGCAG", "binding signal": "5730 fluorescence intensity (a.u.)"}, {"sequence": "GATTGGCTGGAGGGCTCGCCGCCCGCGCCACGTGGGCTCCCGGAGTCACCTAGTGCAG", "binding signal": "17500 fluorescence intensity (a.u.)"}, {"sequence": "CACGGGCACACGCCATGTGAGGGGACATGAGGTGGGCACGCGGAGTCACCTAGTGCAG", "binding signal": "3390 fluorescence intensity (a.u.)"}, {"sequence": "GAGGCCCACCTGAAATTTCCACGCGCACGCGCTTTCCCGACGGAGTCACCTAGTGCAG", "binding signal": "3370 fluorescence intensity (a.u.)"}, {"sequence": "TCCCTCTCACGCCGCCGCCGCCTCGCCGCTTTCCTCTCTCCGGAGTCACCTAGTGCAG", "binding signal": "3490 fluorescence intensity (a.u.)"}, {"sequence": "ATACACACAGGCACACGTCCCACTCACTCGCTGCCTGCTCCGGAGTCACCTAGTGCAG", "binding signal": "3610 fluorescence intensity (a.u.)"}, {"sequence": "AAGTGGTTTCAGTGCTACGTGGCAATCCGGTCTACAATTCCGGAGTCACCTAGTGCAG", "binding signal": "5900 fluorescence intensity (a.u.)"}]}]}
